Data as given in PubChem BioAssay AID652243 (Drosophila RNAi Screening Center, 2013)
Screen: 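Knock-downs that decrease or increase androgen receptor reporter signal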 (primary screen). System: Drosophila S2R+ cells. Reagents: long dsRNA against Drosophila genes. Timing: 72 h (48 h, then 24 h hormone). Challenge: synthetic androgen R1881 at 10 nM for 24 h. Measured: 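Per-well raw luminescence of the androgen-driven firefly reporter and of the Renilla control, two replicates each, without normalisation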. Direction: firefly reporter light: higher = more light from androgen-responsive reporter; Renilla control light: higher = more constitutive control signal (cell number, transfection). Rule for the call: 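Hit when the log firefly-to-Renilla ratio dropped or increased by a fixed fold versus the mean of GFP or LacZ controls across duplicate plates; lowering cut given as 1.5 and as 3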. Calls: active = hit: reporter lowered or raised; inactive = no hit.
The screen tested about 24,000 reagents; below is an unselected part of those with a known target gene and a result. In the full data, 246 (1%) got an active call. 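Plates not normalised; calls are printed but the firefly/Renilla ratio behind them is not deposited; fold cut for lowering reported inconsistently.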 The raw values are shown without normalisation. Unmarked entries are inactive. The record does not give: the amount of reagent.

For CG15225 [DRSC23269], what does the deposit list?
firefly reporter light, replicate 1: 6.68e5; firefly reporter light, replicate 2: 5.76e5; Renilla control light, replicate 1: 1.01e6; Renilla control light, replicate 2: 9.65e5

With CG15225 [DRSC29370], how do the results read?
firefly reporter light, replicate 1: 5.32e5; firefly reporter light, replicate 2: 4.93e5; Renilla control light, replicate 1: 1.30e6; Renilla control light, replicate 2: 1.30e6

For zormin [DRSC07969], what was measured?
firefly reporter light, replicate 1: 1.76e5; firefly reporter light, replicate 2: 2.16e5; Renilla control light, replicate 1: 3.95e5; Renilla control light, replicate 2: 5.71e5

For zormin [DRSC08210], what was measured?
firefly reporter light, replicate 1: 1.30e5; firefly reporter light, replicate 2: 1.93e5; Renilla control light, replicate 1: 1.04e6; Renilla control light, replicate 2: 1.04e6

For zormin [DRSC08212], how do the results read?
firefly reporter light, replicate 1: 1.13e5; firefly reporter light, replicate 2: 1.32e5; Renilla control light, replicate 1: 5.90e5; Renilla control light, replicate 2: 7.62e5

Which result is listed for zormin [DRSC08213]?
firefly reporter light, replicate 1: 67588; firefly reporter light, replicate 2: 92507; Renilla control light, replicate 1: 7.13e5; Renilla control light, replicate 2: 7.76e5

With zormin [DRSC08297], what was measured?
firefly reporter light, replicate 1: 1.07e5; firefly reporter light, replicate 2: 89091; Renilla control light, replicate 1: 1.11e6; Renilla control light, replicate 2: 1.15e6

With zormin [DRSC22483], how do the results read?
firefly reporter light, replicate 1: 4.51e5; firefly reporter light, replicate 2: 7.25e5; Renilla control light, replicate 1: 1.49e6; Renilla control light, replicate 2: 1.96e6

What is on record for CG42570 [DRSC09391]?
firefly reporter light, replicate 1: 7.67e5; firefly reporter light, replicate 2: 9.15e5; Renilla control light, replicate 1: 9.38e5; Renilla control light, replicate 2: 7.84e5

With Klp54D [DRSC07450], how do the results read?
firefly reporter light, replicate 1: 64481; firefly reporter light, replicate 2: 50343; Renilla control light, replicate 1: 1.27e6; Renilla control light, replicate 2: 1.27e6

With CG5681 [DRSC02876], what was measured?
firefly reporter light, replicate 1: 2.94e5; firefly reporter light, replicate 2: 3.29e5; Renilla control light, replicate 1: 2.84e6; Renilla control light, replicate 2: 3.30e6

For CG5681 [DRSC24022], what was measured?
firefly reporter light, replicate 1: 6.42e5; firefly reporter light, replicate 2: 9.48e5; Renilla control light, replicate 1: 9.06e5; Renilla control light, replicate 2: 9.76e5

Reformatted: entries from further up.
{"target gene":"CG15225","DRSC id":"DRSC29370","firefly reporter light, replicate 1":5.32e5,"firefly reporter light, replicate 2":4.93e5,"Renilla control light, replicate 1":1.30e6,"Renilla control light, replicate 2":1.30e6}
{"target gene":"zormin","DRSC id":"DRSC07969","firefly reporter light, replicate 1":1.76e5,"firefly reporter light, replicate 2":2.16e5,"Renilla control light, replicate 1":3.95e5,"Renilla control light, replicate 2":5.71e5}
